{"sequences": {"note": "By UniProt entry, the sequences of proteins in these tests, tags left out.", "UniProt P26527": "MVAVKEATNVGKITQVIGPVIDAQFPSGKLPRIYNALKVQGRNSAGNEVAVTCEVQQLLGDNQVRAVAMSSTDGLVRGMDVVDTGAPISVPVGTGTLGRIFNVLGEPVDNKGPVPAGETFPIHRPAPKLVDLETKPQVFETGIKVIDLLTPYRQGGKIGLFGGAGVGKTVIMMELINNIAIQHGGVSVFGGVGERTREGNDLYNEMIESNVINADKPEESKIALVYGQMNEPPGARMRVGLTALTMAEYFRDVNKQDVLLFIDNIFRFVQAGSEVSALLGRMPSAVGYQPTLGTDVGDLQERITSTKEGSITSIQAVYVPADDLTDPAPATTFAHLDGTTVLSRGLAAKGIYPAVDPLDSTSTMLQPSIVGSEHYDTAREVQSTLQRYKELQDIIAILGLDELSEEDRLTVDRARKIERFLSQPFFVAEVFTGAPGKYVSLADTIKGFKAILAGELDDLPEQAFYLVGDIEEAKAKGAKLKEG", "UniProt P27182": "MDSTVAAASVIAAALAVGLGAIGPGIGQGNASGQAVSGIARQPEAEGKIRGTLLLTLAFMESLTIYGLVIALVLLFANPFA", "UniProt P27179": "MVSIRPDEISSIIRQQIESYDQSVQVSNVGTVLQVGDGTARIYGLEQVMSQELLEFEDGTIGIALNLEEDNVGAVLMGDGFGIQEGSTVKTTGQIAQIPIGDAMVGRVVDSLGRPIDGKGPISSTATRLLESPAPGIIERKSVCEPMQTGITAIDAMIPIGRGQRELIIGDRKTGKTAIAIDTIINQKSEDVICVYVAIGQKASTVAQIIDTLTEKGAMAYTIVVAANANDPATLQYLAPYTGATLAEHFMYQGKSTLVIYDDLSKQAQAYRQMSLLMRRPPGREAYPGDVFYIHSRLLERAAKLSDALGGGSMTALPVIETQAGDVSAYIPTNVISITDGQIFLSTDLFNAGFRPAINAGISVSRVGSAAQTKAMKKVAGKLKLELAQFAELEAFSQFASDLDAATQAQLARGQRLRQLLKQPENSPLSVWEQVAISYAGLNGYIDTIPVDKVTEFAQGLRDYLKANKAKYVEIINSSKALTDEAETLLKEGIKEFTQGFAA"}, "source": "paper PMC8390522", "target": "β subunit of FoF1 ATP synthase of Synechocystis sp. PCC 6803 with an N-terminal His10-tag (Synechocystis sp. PCC 6803) (UniProt P26527)", "assay": "co-purification by Ni-affinity chromatography; thylakoid membranes solubilised with 1% LMNG; FoF1 held by the His10-tag of the β subunit, 10 mM potassium phosphate pH 8.0, 100 mM K2SO4, 0.1 mM MgCl2, 0.1 mM ADP, 0.005% LMNG, 60 to 200 mM imidazole; bands of the SDS-PAGE gel identified by peptide mass fingerprinting, N-terminal sequencing or immunoblot", "note": "Results are given in words; binding and its absence hold for the method and conditions named. Some entries that bind do so weakly or less than the wild type.", "data": [{"substance": "c subunit of FoF1 ATP synthase of Synechocystis sp. PCC 6803 (from UniProt P27182 1-81)", "values": [{"measurement": "binding", "value": "binds"}]}, {"substance": "α subunit of FoF1 ATP synthase of Synechocystis sp. PCC 6803 (from UniProt P27179 1-503)", "values": [{"measurement": "binding", "value": "binds"}]}]}
